# According to the supplement of paper PMC10849652:
# Protein sequences, listed by entry. Tags and fused reporters are not part of them. Lines headed by an entry give the natural chain unless they say otherwise; changes in a name come on top.
# UniProt Q96GU1: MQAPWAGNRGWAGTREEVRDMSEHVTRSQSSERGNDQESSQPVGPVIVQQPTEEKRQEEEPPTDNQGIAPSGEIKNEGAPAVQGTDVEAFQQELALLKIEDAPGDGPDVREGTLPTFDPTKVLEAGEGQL
# UniProt Q9BZF1: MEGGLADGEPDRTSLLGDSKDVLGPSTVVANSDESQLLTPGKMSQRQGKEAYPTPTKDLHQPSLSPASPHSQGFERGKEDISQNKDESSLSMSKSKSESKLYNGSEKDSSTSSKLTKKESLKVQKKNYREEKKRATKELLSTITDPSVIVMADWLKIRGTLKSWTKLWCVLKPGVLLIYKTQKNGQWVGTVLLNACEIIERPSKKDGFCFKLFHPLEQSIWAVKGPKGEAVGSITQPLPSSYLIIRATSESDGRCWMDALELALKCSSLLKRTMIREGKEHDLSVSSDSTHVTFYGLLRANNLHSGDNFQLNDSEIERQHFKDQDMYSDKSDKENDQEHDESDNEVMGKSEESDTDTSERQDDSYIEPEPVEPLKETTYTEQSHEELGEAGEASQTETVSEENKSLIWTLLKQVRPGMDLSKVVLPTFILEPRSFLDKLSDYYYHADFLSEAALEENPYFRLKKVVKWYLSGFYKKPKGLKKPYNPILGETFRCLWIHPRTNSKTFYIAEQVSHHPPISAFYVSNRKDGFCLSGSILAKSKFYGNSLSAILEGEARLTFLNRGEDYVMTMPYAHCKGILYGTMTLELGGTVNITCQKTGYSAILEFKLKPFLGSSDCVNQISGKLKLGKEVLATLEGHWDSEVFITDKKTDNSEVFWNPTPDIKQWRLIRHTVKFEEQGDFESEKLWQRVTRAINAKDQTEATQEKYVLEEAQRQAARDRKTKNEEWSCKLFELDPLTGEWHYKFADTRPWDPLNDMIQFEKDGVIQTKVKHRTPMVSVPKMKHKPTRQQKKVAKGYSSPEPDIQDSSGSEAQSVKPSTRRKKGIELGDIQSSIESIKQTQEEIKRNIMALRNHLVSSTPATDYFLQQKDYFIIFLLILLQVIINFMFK
# UniProt Q96RD7, whole entry, looked up: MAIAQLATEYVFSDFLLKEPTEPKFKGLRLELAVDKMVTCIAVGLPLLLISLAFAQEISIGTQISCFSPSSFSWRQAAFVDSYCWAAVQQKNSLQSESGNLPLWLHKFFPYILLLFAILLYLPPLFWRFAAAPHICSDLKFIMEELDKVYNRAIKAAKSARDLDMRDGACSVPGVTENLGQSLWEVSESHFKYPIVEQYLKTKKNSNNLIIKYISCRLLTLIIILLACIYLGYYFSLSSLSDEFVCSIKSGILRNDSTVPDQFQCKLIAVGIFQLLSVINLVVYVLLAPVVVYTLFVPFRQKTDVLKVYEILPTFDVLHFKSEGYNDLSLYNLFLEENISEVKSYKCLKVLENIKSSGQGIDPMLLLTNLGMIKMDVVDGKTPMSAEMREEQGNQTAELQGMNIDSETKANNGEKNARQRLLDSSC
# UniProt Q92882: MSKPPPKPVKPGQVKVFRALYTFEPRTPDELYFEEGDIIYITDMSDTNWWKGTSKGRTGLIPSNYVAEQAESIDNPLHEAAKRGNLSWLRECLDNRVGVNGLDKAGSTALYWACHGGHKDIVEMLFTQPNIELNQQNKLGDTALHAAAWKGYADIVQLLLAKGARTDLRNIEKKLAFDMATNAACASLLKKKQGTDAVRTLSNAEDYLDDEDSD
# UniProt Q8NFH4: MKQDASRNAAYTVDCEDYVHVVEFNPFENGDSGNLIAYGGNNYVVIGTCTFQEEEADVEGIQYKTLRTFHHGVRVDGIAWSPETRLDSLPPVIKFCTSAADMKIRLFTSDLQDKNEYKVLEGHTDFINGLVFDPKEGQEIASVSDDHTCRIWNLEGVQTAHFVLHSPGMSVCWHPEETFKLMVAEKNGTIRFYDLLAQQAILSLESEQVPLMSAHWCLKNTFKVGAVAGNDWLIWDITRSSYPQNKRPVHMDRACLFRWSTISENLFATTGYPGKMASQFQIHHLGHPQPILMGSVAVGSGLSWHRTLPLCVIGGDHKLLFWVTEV
# UniProt Q9BZ23: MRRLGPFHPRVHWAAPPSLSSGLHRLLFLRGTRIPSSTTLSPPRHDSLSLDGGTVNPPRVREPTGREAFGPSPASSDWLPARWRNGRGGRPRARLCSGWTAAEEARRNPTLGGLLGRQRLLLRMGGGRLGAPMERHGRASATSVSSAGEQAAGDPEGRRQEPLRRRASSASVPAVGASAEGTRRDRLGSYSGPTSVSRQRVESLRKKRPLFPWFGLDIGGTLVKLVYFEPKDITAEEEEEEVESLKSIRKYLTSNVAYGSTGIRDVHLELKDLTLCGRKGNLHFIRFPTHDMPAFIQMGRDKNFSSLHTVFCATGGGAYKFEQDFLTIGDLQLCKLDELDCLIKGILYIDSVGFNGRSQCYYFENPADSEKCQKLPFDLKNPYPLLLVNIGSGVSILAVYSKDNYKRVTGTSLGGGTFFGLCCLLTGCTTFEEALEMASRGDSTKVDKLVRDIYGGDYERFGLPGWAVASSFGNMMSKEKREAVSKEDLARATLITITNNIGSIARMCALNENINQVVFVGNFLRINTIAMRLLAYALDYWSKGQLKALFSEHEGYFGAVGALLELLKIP
# UniProt Q969R2: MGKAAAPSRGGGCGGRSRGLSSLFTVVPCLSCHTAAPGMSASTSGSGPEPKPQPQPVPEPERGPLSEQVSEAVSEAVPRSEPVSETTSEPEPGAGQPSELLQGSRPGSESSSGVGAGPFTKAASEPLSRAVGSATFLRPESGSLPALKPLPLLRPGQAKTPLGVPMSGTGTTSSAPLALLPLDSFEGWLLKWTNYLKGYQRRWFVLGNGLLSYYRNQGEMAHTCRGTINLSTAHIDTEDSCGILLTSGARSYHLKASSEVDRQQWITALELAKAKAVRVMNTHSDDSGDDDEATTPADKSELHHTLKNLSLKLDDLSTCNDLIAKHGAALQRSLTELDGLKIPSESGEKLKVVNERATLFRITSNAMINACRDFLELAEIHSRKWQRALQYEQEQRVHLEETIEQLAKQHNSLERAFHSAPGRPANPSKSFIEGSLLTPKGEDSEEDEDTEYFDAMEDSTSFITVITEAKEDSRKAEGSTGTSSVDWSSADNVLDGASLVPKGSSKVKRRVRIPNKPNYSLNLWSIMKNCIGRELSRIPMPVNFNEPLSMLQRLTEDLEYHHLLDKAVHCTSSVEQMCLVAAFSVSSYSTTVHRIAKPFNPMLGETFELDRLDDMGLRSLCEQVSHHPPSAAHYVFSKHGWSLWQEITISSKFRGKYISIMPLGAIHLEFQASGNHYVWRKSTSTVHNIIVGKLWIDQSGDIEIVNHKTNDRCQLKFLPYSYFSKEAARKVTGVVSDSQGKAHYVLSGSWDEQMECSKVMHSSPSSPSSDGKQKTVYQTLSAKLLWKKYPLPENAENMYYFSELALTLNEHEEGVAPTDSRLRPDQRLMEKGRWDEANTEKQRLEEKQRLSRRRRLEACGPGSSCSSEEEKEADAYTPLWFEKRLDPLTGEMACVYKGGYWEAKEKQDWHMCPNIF
# UniProt Q5SRE5: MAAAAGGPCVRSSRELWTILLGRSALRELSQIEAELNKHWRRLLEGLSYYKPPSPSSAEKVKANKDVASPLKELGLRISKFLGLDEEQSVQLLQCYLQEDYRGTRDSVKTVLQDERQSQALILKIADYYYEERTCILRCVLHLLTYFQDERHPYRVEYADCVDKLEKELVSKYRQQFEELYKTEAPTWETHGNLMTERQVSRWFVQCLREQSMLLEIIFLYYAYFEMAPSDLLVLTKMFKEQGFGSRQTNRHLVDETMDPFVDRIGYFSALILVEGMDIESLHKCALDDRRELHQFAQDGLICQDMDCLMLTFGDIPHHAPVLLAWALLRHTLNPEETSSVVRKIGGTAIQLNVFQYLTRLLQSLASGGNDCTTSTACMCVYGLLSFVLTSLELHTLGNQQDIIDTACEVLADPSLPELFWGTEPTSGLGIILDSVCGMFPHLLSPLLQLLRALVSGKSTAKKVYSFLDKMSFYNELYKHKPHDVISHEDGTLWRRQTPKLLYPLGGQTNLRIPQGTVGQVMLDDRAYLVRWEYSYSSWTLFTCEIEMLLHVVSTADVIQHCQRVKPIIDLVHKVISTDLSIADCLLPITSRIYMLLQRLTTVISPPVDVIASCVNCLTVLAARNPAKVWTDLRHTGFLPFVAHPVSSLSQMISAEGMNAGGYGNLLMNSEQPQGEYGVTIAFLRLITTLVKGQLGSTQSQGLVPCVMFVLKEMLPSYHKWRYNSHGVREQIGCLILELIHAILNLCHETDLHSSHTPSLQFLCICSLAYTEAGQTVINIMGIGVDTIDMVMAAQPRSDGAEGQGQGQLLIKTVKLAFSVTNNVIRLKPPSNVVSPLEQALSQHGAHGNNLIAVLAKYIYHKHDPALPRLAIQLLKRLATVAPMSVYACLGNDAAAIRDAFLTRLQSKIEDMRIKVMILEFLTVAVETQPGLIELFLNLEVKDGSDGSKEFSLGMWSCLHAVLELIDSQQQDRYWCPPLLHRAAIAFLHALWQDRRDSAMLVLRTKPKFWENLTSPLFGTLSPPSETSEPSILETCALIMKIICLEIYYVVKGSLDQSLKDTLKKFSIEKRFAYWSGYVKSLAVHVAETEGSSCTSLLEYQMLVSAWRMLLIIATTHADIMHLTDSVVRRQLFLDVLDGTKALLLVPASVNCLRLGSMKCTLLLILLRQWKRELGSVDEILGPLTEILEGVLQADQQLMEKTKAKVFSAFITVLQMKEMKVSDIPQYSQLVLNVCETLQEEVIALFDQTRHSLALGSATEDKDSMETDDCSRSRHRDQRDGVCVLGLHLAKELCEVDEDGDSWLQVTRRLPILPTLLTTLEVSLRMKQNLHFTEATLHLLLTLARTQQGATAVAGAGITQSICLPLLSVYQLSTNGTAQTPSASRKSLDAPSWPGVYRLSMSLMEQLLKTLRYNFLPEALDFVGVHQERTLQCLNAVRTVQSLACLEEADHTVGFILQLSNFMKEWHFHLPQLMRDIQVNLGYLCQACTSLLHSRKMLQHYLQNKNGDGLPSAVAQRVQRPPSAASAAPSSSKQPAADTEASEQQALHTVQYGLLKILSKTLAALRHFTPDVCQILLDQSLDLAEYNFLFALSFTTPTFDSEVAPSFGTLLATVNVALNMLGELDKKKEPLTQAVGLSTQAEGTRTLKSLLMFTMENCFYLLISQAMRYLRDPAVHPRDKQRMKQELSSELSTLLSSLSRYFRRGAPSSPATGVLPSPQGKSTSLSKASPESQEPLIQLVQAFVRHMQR
# UniProt Q9NPF4: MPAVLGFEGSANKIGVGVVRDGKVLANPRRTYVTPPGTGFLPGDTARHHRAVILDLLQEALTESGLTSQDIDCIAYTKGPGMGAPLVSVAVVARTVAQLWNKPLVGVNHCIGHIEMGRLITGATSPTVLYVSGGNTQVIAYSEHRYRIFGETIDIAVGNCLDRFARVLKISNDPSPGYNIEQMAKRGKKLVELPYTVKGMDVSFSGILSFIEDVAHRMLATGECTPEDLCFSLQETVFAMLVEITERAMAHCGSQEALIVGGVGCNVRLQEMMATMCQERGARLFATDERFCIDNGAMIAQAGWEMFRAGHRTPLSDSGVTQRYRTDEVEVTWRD
# UniProt Q9BYG5: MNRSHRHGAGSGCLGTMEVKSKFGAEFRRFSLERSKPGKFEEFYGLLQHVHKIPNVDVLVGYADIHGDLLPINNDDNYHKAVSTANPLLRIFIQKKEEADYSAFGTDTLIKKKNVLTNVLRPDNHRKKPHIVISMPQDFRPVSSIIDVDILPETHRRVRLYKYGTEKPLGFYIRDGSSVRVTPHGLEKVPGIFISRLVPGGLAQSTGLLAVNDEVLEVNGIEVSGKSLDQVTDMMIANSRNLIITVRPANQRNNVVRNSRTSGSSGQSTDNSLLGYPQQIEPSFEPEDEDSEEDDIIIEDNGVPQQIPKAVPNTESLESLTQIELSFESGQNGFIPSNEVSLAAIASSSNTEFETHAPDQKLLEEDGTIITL
# UniProt O75781: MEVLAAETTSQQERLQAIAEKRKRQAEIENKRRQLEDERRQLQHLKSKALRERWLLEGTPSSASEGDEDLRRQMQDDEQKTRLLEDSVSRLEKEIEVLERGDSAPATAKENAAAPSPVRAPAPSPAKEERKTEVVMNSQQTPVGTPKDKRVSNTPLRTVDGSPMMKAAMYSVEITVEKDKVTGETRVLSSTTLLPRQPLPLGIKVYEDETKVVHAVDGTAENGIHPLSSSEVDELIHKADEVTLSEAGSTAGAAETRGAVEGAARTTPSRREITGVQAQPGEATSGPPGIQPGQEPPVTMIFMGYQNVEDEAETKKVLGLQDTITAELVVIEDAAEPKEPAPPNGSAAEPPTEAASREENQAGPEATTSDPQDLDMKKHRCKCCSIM
# UniProt O43482, whole entry, looked up: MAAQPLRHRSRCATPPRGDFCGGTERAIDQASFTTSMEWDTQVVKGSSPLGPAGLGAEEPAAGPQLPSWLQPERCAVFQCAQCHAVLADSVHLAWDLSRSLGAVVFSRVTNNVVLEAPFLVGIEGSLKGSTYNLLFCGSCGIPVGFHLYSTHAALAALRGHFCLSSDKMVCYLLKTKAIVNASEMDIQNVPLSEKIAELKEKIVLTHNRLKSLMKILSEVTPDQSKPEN
# The list shows a part of the results.
# Key:
# Assay in all cases: log2 fold change, soluble protein after heating vs DMSO (PISA); higher = thermal stabilisation; K562 lysate, 10 uM; active = over 0.2 and 3.5 SD of the protein, either way, in both replicates (recomputed)
# lapatinib = compound: CS(=O)(=O)CCNCc1ccc(-c2ccc3ncnc(Nc4ccc(OCc5cccc(F)c5)c(Cl)c4)c3c2)o1 [lapatinib]
# In short: (§1)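 Log-two fold change in thermal stability relative to solvent controls is reported from duplicates. For each sample, crude K562 extract from dounce-homogenised pellets in PBS pH 7.4 with 1 mM MgCl2, at 1 mg/mL protein, was treated with 10 μM compound for 30 min. Aliquots heated for 3 min across 48°C-58°C were pooled, brought to 0.5% NP-40 at 4°C and cleared at 21,000xg for 90 min. The supernatant was quantified by TMTpro 16plex LC-MS/MS with channel sums equalised.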
# pictilisib = compound: CS(=O)(=O)N1CCN(Cc2cc3nc(-c4cccc5[nH]ncc45)nc(N4CCOCC4)c3s2)CC1 [pictilisib]
# In short: as §1
# crizotinib = compound: C[C@@H](Oc1cc(-c2cnn(C3CCNCC3)c2)cnc1N)c1c(Cl)ccc(F)c1Cl [crizotinib]
# In short: as §1
# [1] = compound: C[C@H](C1=CC=C(C=C1)C(=O)NC2=C3C=CNC3=NC=C2)N
# In short: as §1
# duvelisib = compound: C[C@H](Nc1ncnc2nc[nH]c12)c1cc2cccc(Cl)c2c(=O)n1-c1ccccc1 [duvelisib]
# In short: as §1
# gandotinib = compound: Cc1cc(Nc2cc(CN3CCOCC3)c3nc(C)c(Cc4ccc(Cl)cc4F)n3n2)n[nH]1 [gandotinib]
# In short: as §1
# tozasertib = compound: Cc1cc(Nc2cc(N3CCN(C)CC3)nc(Sc3ccc(NC(=O)C4CC4)cc3)n2)n[nH]1 [tozasertib]
# In short: as §1
# doramapimod = compound: Cc1ccc(-n2nc(C(C)(C)C)cc2NC(=O)Nc2ccc(OCCN3CCOCC3)c3ccccc23)cc1 [doramapimod]
# In short: as §1
# bafetinib = compound: Cc1ccc(NC(=O)c2ccc(CN3CC[C@H](N(C)C)C3)c(C(F)(F)F)c2)cc1Nc1nccc(-c2cncnc2)n1 [bafetinib]
# In short: as §1
# [2] = compound: Cc1cccc(CC(=O)N2CCc3c2ccc(-c2cn(C)c4ncnc(N)c24)c3F)n1
# In short: as §1
# nilotinib = compound: Cc1cn(-c2cc(NC(=O)c3ccc(C)c(Nc4nccc(-c5cccnc5)n4)c3)cc(C(F)(F)F)c2)cn1 [nilotinib]
# In short: as §1
# [3] = compound: Cc1nc(Nc2n[nH]c3c2CN(C(=O)N[C@H](CN(C)C)c2ccccc2)C3(C)C)c2sccc2n1
# In short: as §1
# dasatinib = compound: Cc1nc(Nc2ncc(C(=O)Nc3c(C)cccc3Cl)s2)cc(N2CCN(CCO)CC2)n1 [dasatinib]
# In short: as §1
# [4] = compound: Cc1ncc(-c2ccnc(Nc3ccc(S(C)(=O)=O)cc3)n2)n1C(C)C
# In short: as §1
# [5] = compound: Cn1cc(-c2ccc3c(c2)CCN3C(=O)Cc2cccc(C(F)(F)F)c2)c2c(N)ncnc21
# In short: as §1
# quisinostat = compound: Cn1cc(CNCC2CCN(c3ncc(C(=O)NO)cn3)CC2)c2ccccc21 [quisinostat]
# In short: as §1
# tipifarnib = compound: Cn1cncc1[C@@](N)(c1ccc(Cl)cc1)c1ccc2c(c1)c(-c1cccc(Cl)c1)cc(=O)n2C [tipifarnib]
# In short: as §1
# [6] = compound: NC(=O)Nc1cc(-c2cccc(F)c2)sc1C(=O)N[C@H]1CCCNC1
# In short: as §1
# [7] = compound: NC(=O)c1cnc(N[C@@H]2CCCC[C@@H]2N)nc1Nc1cccc(-n2nccn2)c1
# In short: as §1
# [8] = compound: NC1(c2ccc(-c3nc4ccn5c(=O)[nH]nc5c4cc3-c3ccccc3)cc2)CCC1
# In short: as §1
Target,log2 fold change (lapatinib),log2 fold change (pictilisib),log2 fold change (crizotinib),log2 fold change [1],log2 fold change (duvelisib),log2 fold change (gandotinib),log2 fold change (tozasertib),log2 fold change (doramapimod),log2 fold change (bafetinib),log2 fold change [2],log2 fold change (nilotinib),log2 fold change [3],log2 fold change (dasatinib),log2 fold change [4],log2 fold change [5],log2 fold change (quisinostat),log2 fold change (tipifarnib),log2 fold change [6],log2 fold change [7],log2 fold change [8]
NUP43 (UniProt Q8NFH3),inactive: -0.021,inactive: -0.012,inactive: 0.015,inactive: -0.025,inactive: -0.012,inactive: 0.053,inactive: -0.005,inactive: -0.011,inactive: -0.045,inactive: 0.009,inactive: 0.035,inactive: -0.014,inactive: 0.007,inactive: -0.018,inactive: -0.045,inactive: 0.012,inactive: -0.002,inactive: 0.037,inactive: -0.013,inactive: -0.012
PAGE5 (UniProt Q96GU1),inactive: 0.051,inactive: 0.04,inactive: 0.035,inactive: 0.337,inactive: 0.023,inactive: -0.163,inactive: 0.007,inactive: -0.082,inactive: -0.03,inactive: -0.17,inactive: -0.003,inactive: 0.045,inactive: 0.017,inactive: 0.318,inactive: -0.03,inactive: 0.002,inactive: 0.021,inactive: -0.012,inactive: -0.035,inactive: 0.012
OSBPL8 (UniProt Q9BZF1),inactive: 0.01,inactive: 0.023,inactive: -0.039,inactive: -0.003,inactive: -0.038,inactive: -0.226,inactive: -0.009,inactive: 0.051,inactive: -0.041,inactive: -0.021,inactive: 0.011,inactive: 0.035,inactive: -0.015,inactive: -0.031,inactive: 0.005,inactive: -0.009,inactive: -0.012,inactive: 0.008,inactive: -0.002,inactive: -0.045
ODR4 (UniProt Q5SWX8),inactive: -0.06,inactive: -0.078,inactive: -0.084,inactive: 0.143,inactive: 0.016,inactive: -0.141,inactive: 0.082,inactive: 0.043,inactive: -0.04,inactive: -0.056,inactive: 0.007,inactive: 0.002,inactive: 0.009,inactive: -0.015,inactive: -0.018,inactive: -0.132,inactive: 0.03,inactive: 0.013,inactive: 0.034,inactive: -0.035
PANX1 (UniProt Q96RD7),inactive: -0.02,inactive: -0.189,inactive: 0.078,inactive: 0.031,inactive: -0.002,inactive: -0.004,inactive: 0.02,inactive: 0.03,inactive: -0.007,inactive: -0.054,inactive: 0.099,inactive: 0.011,inactive: 0.04,inactive: -0.04,inactive: 0.006,inactive: 0.053,inactive: -0.067,inactive: -0.009,inactive: -0.007,inactive: -0.031
OSTF1 (UniProt Q92882),inactive: 0.007,inactive: -0.045,inactive: -0.005,inactive: -0.015,inactive: -0.009,inactive: 0.059,inactive: 0.085,inactive: -0.002,inactive: -0.027,inactive: 0.038,inactive: -0.018,inactive: 0.008,inactive: -0.015,inactive: 0,inactive: 0.013,inactive: 0.003,inactive: 0.03,inactive: 0.022,inactive: 0.024,inactive: 0.021
NUP37 (UniProt Q8NFH4),inactive: -0.036,inactive: -0.004,inactive: 0.029,inactive: -0.054,inactive: -0.006,inactive: 0.018,inactive: 0.038,inactive: 0.049,inactive: -0.056,inactive: 0.046,inactive: -0.003,inactive: -0.009,inactive: 0.002,inactive: -0.035,inactive: 0.017,inactive: 0.037,inactive: -0.001,inactive: -0.004,inactive: -0.007,inactive: -0.004
PANK2 (UniProt Q9BZ23),inactive: 0.079,inactive: 0.143,inactive: -0.073,inactive: -0.023,inactive: -0.126,inactive: 0.077,inactive: 0.008,inactive: -0.008,inactive: -0.029,inactive: 0.095,inactive: -0.068,inactive: -0.111,inactive: 0.135,inactive: 0.001,inactive: -0.032,inactive: 0.045,inactive: 0.126,inactive: -0.053,inactive: -0.005,
PAFAH1B2 (UniProt P68402),inactive: 0.063,inactive: -0.08,inactive: -0.029,inactive: 0.023,inactive: 0.056,inactive: 0.011,inactive: 0.063,inactive: -0.031,inactive: 0.061,inactive: 0.107,inactive: -0.045,inactive: 0.051,inactive: 0.004,inactive: -0.008,inactive: -0.035,inactive: -0.052,inactive: -0.016,inactive: 0.013,inactive: 0.055,inactive: -0.015
OSBP2 (UniProt Q969R2),inactive: 0.003,inactive: 0.024,inactive: -0.074,active: -0.666,inactive: 0.116,inactive: 0.194,inactive: -0.028,inactive: 0.018,inactive: -0.037,inactive: 0.23,inactive: -0.053,inactive: -0.038,inactive: -0.089,inactive: -0.025,inactive: -0.002,inactive: -0.184,inactive: -0.053,inactive: 0.052,inactive: 0.075,inactive: 0.026
NUP188 (UniProt Q5SRE5),inactive: -0.063,inactive: -0.04,inactive: -0.05,inactive: -0.024,inactive: 0.004,inactive: -0.127,inactive: -0.012,inactive: -0.034,inactive: -0.031,inactive: 0.039,inactive: 0.025,inactive: -0.003,inactive: -0.074,inactive: -0.002,inactive: 0.055,inactive: -0.024,inactive: -0.047,inactive: 0.043,inactive: 0.03,inactive: 0.009
OSGEP (UniProt Q9NPF4),inactive: -0.011,inactive: -0.025,inactive: -0.006,inactive: -0.07,inactive: -0.037,inactive: -0.024,inactive: 0.043,inactive: -0.035,inactive: -0.008,inactive: 0.033,inactive: -0.005,inactive: 0.008,inactive: 0.002,inactive: 0.018,inactive: 0.025,inactive: -0.006,inactive: 0.026,inactive: -0.012,inactive: -0.027,inactive: 0.03
ORC4 (UniProt O43929),inactive: -0.023,inactive: -0.021,inactive: -0.092,inactive: 0.009,inactive: -0.02,inactive: -0.161,inactive: -0.054,inactive: -0.036,inactive: -0.069,inactive: -0.005,inactive: 0.051,inactive: 0.024,inactive: -0.078,inactive: -0.023,inactive: 0.036,inactive: -0.056,inactive: -0.007,inactive: 0.076,inactive: 0.005,inactive: 0.017
PARD6B (UniProt Q9BYG5),inactive: 0.036,inactive: -0.013,inactive: -0.015,inactive: -0.013,inactive: 0.022,inactive: 0.033,inactive: -0.017,inactive: 0.035,inactive: -0.063,inactive: 0.028,inactive: 0.042,inactive: 0.11,inactive: 0.019,inactive: -0.011,inactive: 0.042,inactive: -0.03,inactive: -0.043,inactive: -0.001,inactive: 0.018,inactive: 0.035
PALM (UniProt O75781),inactive: -0.027,inactive: -0.064,inactive: 0.025,inactive: -0.063,inactive: 0.023,inactive: 0.066,inactive: 0.007,inactive: -0.023,inactive: 0.003,inactive: 0.026,inactive: -0.012,inactive: 0.022,inactive: 0.005,inactive: -0.09,inactive: 0.042,inactive: -0.04,inactive: -0.058,inactive: -0.03,inactive: 0.008,inactive: 0.035
OIP5 (UniProt O43482),inactive: 0.027,inactive: 0,inactive: -0.074,inactive: -0.057,inactive: -0.056,inactive: 0.097,inactive: -0.036,inactive: 0.003,inactive: -0.118,inactive: 0.083,inactive: 0.08,inactive: 0.049,inactive: -0.008,inactive: 0.068,inactive: -0.051,inactive: -0.05,inactive: 0.019,inactive: -0.032,inactive: -0.038,inactive: -0.015

# Another view of part of the listing above:
Target | log2 fold change (lapatinib) | log2 fold change (pictilisib) | log2 fold change (crizotinib) | log2 fold change [1] | log2 fold change (duvelisib) | log2 fold change (gandotinib) | log2 fold change (tozasertib) | log2 fold change (doramapimod) | log2 fold change (bafetinib) | log2 fold change [2] | log2 fold change (nilotinib) | log2 fold change [3] | log2 fold change (dasatinib) | log2 fold change [4] | log2 fold change [5] | log2 fold change (quisinostat) | log2 fold change (tipifarnib) | log2 fold change [6] | log2 fold change [7] | log2 fold change [8]
NUP43 (UniProt Q8NFH3) | inactive: -0.021 | inactive: -0.012 | inactive: 0.015 | inactive: -0.025 | inactive: -0.012 | inactive: 0.053 | inactive: -0.005 | inactive: -0.011 | inactive: -0.045 | inactive: 0.009 | inactive: 0.035 | inactive: -0.014 | inactive: 0.007 | inactive: -0.018 | inactive: -0.045 | inactive: 0.012 | inactive: -0.002 | inactive: 0.037 | inactive: -0.013 | inactive: -0.012
PAGE5 (UniProt Q96GU1) | inactive: 0.051 | inactive: 0.04 | inactive: 0.035 | inactive: 0.337 | inactive: 0.023 | inactive: -0.163 | inactive: 0.007 | inactive: -0.082 | inactive: -0.03 | inactive: -0.17 | inactive: -0.003 | inactive: 0.045 | inactive: 0.017 | inactive: 0.318 | inactive: -0.03 | inactive: 0.002 | inactive: 0.021 | inactive: -0.012 | inactive: -0.035 | inactive: 0.012
OSBPL8 (UniProt Q9BZF1) | inactive: 0.01 | inactive: 0.023 | inactive: -0.039 | inactive: -0.003 | inactive: -0.038 | inactive: -0.226 | inactive: -0.009 | inactive: 0.051 | inactive: -0.041 | inactive: -0.021 | inactive: 0.011 | inactive: 0.035 | inactive: -0.015 | inactive: -0.031 | inactive: 0.005 | inactive: -0.009 | inactive: -0.012 | inactive: 0.008 | inactive: -0.002 | inactive: -0.045
